From patent US10525159B2, “Liquid preparation for contact lenses comprising hydrolyzed hyaluronic acid derivative and cationic bactericide” (OPHTECS CORPORATION, priority 2016, dated 2020)

Test: Absorptivity of fluorescence-labeled sample to SCL using fluorescence microscope (balafilcon A)
Conditions: 50 ppm in PBS, FIG. 2

hydrolyzed hyaluronic acid [reference compound]
relative fluorescence intensity 13 days after immersion compared with 1 day after immersion: not significantly different

hydrolyzed alkyl (C12-13) glyceryl hyaluronate [hydrolyzed hyaluronic acid derivative]
relative fluorescence intensity 13 days after immersion compared with 1 day after immersion: significantly different | relative fluorescence intensity 1 day after immersion, compared with Na hyaluronate and hydrolyzed hyaluronic acid (risk ratio of less than 5%): significantly different | relative fluorescence intensity 13 days after immersion, compared with Na hyaluronate and hydrolyzed hyaluronic acid (risk ratio of less than 5%): significantly different

sodium hyaluronate [Na hyaluronate, reference compound]
relative fluorescence intensity 13 days after immersion compared with 1 day after immersion: not significantly different
